Literature values in PMC3974814, “In Vitro Evaluation of the Inhibitory Potential of Pharmaceutical Excipients on Human Carboxylesterase 1A and 2” (PLoS ONE, 2014).

Target: CES1A1 and CES2
Design: method as in PMID 20810539
Details: human CES enzyme activity; isoform per drug not stated; read-out: inhibition constant (Ki); cited from earlier work

## CC(C)OC(=O)C(C)(C)Oc1ccc(C(=O)c2ccc(Cl)cc2)cc1 [fenofibrate]
  Ki: 40 nM
